Assay results: article PMC10694608

Sequences of proteins named here, by UniProt entry; tags and fusion partners are left off.
UniProt P61586: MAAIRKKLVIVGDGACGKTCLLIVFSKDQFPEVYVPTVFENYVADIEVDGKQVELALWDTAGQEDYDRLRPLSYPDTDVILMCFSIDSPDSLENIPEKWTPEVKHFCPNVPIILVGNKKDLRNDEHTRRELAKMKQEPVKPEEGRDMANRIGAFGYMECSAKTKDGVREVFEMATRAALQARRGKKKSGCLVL
UniProt Q16513: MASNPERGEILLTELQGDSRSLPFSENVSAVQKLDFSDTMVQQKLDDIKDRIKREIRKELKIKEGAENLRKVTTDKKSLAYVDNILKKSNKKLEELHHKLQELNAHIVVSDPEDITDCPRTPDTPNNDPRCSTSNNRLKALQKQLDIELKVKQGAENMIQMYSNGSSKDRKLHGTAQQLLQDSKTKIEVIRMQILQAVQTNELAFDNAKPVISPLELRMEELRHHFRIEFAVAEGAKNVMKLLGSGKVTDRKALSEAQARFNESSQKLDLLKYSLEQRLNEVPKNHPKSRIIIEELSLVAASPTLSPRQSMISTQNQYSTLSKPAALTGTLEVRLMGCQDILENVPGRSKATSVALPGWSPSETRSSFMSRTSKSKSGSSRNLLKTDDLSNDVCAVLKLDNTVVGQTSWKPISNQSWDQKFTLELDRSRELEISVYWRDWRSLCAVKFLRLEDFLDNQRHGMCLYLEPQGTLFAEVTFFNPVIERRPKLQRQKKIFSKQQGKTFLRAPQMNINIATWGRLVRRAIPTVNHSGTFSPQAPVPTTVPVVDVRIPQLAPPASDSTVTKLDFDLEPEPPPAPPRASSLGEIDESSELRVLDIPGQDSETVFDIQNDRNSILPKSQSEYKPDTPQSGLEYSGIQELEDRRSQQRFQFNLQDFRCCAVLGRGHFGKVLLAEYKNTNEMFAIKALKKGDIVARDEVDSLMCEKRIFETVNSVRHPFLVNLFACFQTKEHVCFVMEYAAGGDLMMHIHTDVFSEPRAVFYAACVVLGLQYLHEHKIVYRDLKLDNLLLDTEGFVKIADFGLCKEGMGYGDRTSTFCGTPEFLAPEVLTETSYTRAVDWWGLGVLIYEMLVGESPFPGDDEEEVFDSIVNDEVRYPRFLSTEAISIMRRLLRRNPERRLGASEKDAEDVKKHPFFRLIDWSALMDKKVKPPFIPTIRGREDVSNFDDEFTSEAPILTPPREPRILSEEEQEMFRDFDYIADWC
UniProt Q9BST9: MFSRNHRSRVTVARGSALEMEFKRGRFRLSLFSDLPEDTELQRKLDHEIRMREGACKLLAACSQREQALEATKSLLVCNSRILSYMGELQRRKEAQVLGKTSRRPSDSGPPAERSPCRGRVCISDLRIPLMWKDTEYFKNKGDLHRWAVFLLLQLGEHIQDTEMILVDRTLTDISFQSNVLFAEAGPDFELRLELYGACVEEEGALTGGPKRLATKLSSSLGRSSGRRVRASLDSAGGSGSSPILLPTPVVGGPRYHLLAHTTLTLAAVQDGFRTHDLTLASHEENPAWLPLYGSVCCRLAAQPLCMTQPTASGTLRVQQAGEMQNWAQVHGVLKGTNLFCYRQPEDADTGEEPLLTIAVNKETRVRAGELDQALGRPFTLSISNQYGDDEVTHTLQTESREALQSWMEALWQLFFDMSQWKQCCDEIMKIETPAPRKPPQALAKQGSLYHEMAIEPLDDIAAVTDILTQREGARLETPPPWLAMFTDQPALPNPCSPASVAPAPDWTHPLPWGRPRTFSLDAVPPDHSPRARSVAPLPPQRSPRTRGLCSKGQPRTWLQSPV
UniProt Q6P5Z2: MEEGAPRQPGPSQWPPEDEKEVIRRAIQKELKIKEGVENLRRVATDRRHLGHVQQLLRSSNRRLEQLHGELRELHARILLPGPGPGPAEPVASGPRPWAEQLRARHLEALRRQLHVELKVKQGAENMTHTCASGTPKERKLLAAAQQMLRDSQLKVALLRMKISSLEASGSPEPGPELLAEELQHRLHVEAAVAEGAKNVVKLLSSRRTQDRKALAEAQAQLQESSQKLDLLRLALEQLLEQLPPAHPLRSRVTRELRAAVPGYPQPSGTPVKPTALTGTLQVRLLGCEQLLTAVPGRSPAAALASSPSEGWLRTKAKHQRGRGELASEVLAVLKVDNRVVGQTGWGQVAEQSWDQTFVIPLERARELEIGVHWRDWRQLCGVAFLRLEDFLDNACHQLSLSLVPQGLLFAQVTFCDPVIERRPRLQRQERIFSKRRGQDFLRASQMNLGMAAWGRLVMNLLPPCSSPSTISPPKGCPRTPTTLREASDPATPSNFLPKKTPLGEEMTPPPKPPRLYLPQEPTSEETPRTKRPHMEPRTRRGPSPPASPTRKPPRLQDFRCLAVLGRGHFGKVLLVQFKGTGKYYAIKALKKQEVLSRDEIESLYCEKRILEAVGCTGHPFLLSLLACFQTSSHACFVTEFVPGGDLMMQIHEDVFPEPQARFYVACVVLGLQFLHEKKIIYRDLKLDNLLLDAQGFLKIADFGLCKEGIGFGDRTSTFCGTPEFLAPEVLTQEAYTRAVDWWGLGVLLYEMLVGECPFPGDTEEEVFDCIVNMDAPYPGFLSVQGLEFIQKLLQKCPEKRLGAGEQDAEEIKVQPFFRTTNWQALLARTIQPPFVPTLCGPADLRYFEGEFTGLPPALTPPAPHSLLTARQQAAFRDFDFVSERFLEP

Target: FLAG-tagged RhoA (human) (UniProt P61586)
Assay: affinity purification with mass spectrometry; FLAG-tagged RhoA induced with 1 μM doxycycline for 42 h in Gαq-expressing HEK293 cells; lysate (50 mM Tris pH 7.4, 150 mM NaCl, 1 mM EDTA, 0.5% NP40) on anti-FLAG M2 magnetic beads, 4°C, 2 h; eluted with 3xFLAG peptide; uninduced samples as controls; SAINTexpress BFDR =< 0.05

binding, binds:
PKN2 (from UniProt Q16513 1-984)
Rhotekin (from UniProt Q9BST9 1-563)
PKN3 (from UniProt Q6P5Z2 1-889)

These are yes or no findings as the source states them, for the method shown. Binding seen in cells or lysates may run through a third protein. These calls come from enrichment with a bait or labelling near it, and not all partners need be listed.
